# PubChem BioAssay AID1224830, NIAID | 2016
# Assay: 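Genes whose knock-down alters the TNF-alpha reporter response to LPS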 (primary screen)
# Cell system: human THP-1 monocytic leukaemia cells, TNF dual-luciferase reporter clone, PMA-differentiated to macrophage-like cells
# Reagent: siRNA pool against human genes, 50 nM
# Duration: LPS for 4 h, given about 3 days after siRNA transfection
# Treatment: bacterial LPS (TLR4 ligand), 10 ng/ml
# Read-out: 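TNF firefly reporter luminescence divided by renilla, normalised to the plate median, then turned into a robust z-score for each replicate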
# Reading the numbers: TNF reporter robust z-score: higher = stronger TNF reporter response to LPS
# Rule for the call: 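Each well counts as active if its z-score is over 2.8 or under -1.5; controls are left without a call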
# Here is a random part of about 18,000 reagents tested. About 2,900 of them (16%) count as active. 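Calls are made per well; low scores hint the gene aids the LPS response, high scores that it dampens it.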 A number with no mark means an inactive call. Repeated entries: four replicate wells of each siRNA pool.
Gene,TNF reporter robust z-score
CACTIN (GeneID 58509),-0.34
CACTIN (GeneID 58509),-0.61
CACTIN (GeneID 58509),-1.38
CACTIN (GeneID 58509),-0.8
SLC22A24 (GeneID 283238),-0.16
SLC22A24 (GeneID 283238),-1.11
SLC22A24 (GeneID 283238),-0.76
SLC22A24 (GeneID 283238),-1.01
HECW1 (GeneID 23072),-1.55 (active)
HECW1 (GeneID 23072),0.52
HECW1 (GeneID 23072),-1.05
HECW1 (GeneID 23072),-0.44
HDAC7 (GeneID 51564),-0.72
HDAC7 (GeneID 51564),-0.42
HDAC7 (GeneID 51564),-0.47
HDAC7 (GeneID 51564),-0.2
DIS3 (GeneID 22894),0.2
DIS3 (GeneID 22894),0.4
DIS3 (GeneID 22894),-0.38
DIS3 (GeneID 22894),0.28
DEFA4 (GeneID 1669),-0.12
DEFA4 (GeneID 1669),0.65
DEFA4 (GeneID 1669),-0.16
DEFA4 (GeneID 1669),0.82
TDRD5 (GeneID 163589),0.38
TDRD5 (GeneID 163589),1.68
TDRD5 (GeneID 163589),0.46
TDRD5 (GeneID 163589),0.59
CCKAR (GeneID 886),-0.39
CCKAR (GeneID 886),0.76
CCKAR (GeneID 886),0
CCKAR (GeneID 886),0.73

A portion from the list above:
Gene,TNF reporter robust z-score
TDRD5 (GeneID 163589),0.59
CCKAR (GeneID 886),-0.39
CCKAR (GeneID 886),0.76
CCKAR (GeneID 886),0

Continued:
Gene,TNF reporter robust z-score
OR52A5 (GeneID 390054),-1.58 (active)
OR52A5 (GeneID 390054),-1.95 (active)
OR52A5 (GeneID 390054),-1.49
OR52A5 (GeneID 390054),-1.97 (active)
KCNB2 (GeneID 9312),-0.4
KCNB2 (GeneID 9312),-1.48
KCNB2 (GeneID 9312),-1.47
KCNB2 (GeneID 9312),-0.82
DPH7 (GeneID 92715),-0.29
DPH7 (GeneID 92715),0.35
DPH7 (GeneID 92715),0.22
DPH7 (GeneID 92715),0.24
OGN (GeneID 4969),0.08
OGN (GeneID 4969),1.61
OGN (GeneID 4969),2.43
OGN (GeneID 4969),1.75
